Experimental data published in PubChem BioAssay AID743255 (National Center for Advancing Translational Sciences (NCATS), 2014).
The whole screen tested about 390,000 compounds, of which about 910 (0.23%) were called active. The shares of active, inactive and inconclusive entries below differ from those in the screen. Calls follow the shape of the dose curve; as a rule, active = well fitted inhibition curve with a large enough effect; inconclusive = small, poorly fitted or top-dose-only effect; inactive = no such curve, though single readings can be large or run the other way. A potency beside an inconclusive call is a rough fit, not a confirmed value.

Amino acid sequences for entries named in this document (tags omitted). A change or cut given only in a name is not applied to a line headed by its entry.
UniProt O94782: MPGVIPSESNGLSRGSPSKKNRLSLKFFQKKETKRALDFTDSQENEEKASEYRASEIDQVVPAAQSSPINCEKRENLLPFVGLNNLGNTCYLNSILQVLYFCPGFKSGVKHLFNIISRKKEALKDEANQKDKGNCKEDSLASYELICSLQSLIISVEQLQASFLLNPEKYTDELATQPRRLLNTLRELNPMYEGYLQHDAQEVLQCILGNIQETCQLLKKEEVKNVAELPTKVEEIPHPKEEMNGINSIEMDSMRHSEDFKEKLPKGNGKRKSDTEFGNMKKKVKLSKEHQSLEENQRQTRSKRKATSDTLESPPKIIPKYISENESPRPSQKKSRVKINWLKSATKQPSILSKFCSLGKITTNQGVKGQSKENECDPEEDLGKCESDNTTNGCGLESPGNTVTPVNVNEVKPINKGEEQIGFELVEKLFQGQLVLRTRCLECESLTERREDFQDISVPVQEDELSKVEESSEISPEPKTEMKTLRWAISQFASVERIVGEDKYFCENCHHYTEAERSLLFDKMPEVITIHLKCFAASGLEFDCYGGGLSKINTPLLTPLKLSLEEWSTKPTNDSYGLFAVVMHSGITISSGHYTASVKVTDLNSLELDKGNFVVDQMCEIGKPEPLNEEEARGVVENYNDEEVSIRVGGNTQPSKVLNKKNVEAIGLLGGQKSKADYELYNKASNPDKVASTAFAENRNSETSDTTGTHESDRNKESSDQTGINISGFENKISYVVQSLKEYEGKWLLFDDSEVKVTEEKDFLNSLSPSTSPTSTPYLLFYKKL

target: Ubiquitin carboxyl-terminal hydrolase 1 (Homo sapiens) (UniProt O94782); experiment: Inhibitors of USP1/UAF1: Primary Screen; details: recombinant USP1/UAF1, Ub-Rhodamine cleavage fluorescence; series mostly up to 57.1 µM; also: nearly all actives have a fitted effect of over 60% in size
Summary of the method: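 High-throughput fluorogenic screen: 1nM USP1/UAF1 complex, Ub-Rho substrate 150nM final, 50mM HEPES pH 7.8 with 0.5mM EDTA, 0.1 mg/ml BSA, 1mM TCEP and 0.01% Tween-20.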
Potency is read from the fitted curve at half-maximal effect.

SMILES	Potency
C=C1SC(Nc2c(C)cccc2C)=NC12CCCCC2	inconclusive: 50.1 µM [inhibitor, partial curve, poor fit]
Cc1ccccc1S(=O)(=O)N1[C@@H](c2ccc(F)cc2)C(C(=O)O)=CC[C@H]1c1ccc(Cl)cc1	inconclusive: 79.4 µM [inhibitor, partial curve, poor fit]
O=C(NCc1ccc(F)cc1)C(=O)NCC(c1cccs1)S(=O)(=O)c1cccs1 (stereo not given)	inconclusive: 316 µM [inhibitor, partial curve, poor fit]
N/C(=N/OC(=O)c1ccccc1Cl)c1ncc([N+](=O)[O-])s1	inconclusive: 6.31 µM [inhibitor, single point]
O=C1NCC2=C1C(c1ccccc1)Nc1ccccc1N2 (stereo not given)	inconclusive: 2.82 µM [inhibitor, partial curve]
CC1CCCCC1NC(=O)COCc1cc(-c2cccs2)on1 (stereo not given)	inactive
CCC(C(=O)NCCc1cc(OC)ccc1OC)n1nc(C)c2sc3ccccc3c2c1=O (stereo not given)	inconclusive: 3.98 µM [inhibitor, full curve]
COc1cc(NC(=O)c2nccnc2N)cc(C(=O)Nc2cccc(C(F)(F)F)c2)c1	inactive
CCN(Cc1ccccc1)S(=O)(=O)c1ccc2[nH]c3c(c2c1)CCCCC3	inconclusive: 35.5 µM [inhibitor, partial curve]
CN(C)c1nnnn1-c1ccc(Cl)cc1	inconclusive: 0.794 µM [inhibitor, partial curve, poor fit]
COC(c1ccccc1)c1nnc(CCC(=O)N(C)C(C2CC2)C2CC2)o1 (stereo not given)	inconclusive: 44.7 µM [inhibitor, partial curve, poor fit]
CCc1cccc(NC(=O)CN(C)S(=O)(=O)c2ccc3c(c2)n(C)c(=O)c(=O)n3C)c1	inactive
CC(NC(=O)CNC(=O)c1ccco1)c1ccccc1 (stereo not given)	inconclusive: 5.01 µM [inhibitor, partial curve, poor fit]
CCN(CC)CCN(C(=O)Cn1nnc(-c2ccc(OC)c(OC)c2)n1)C(C(=O)NC1CCCC1)c1ccc(F)cc1 (stereo not given)	inconclusive: 0.631 µM [inhibitor, full curve, poor fit]
COc1ccccc1N1CCN(C(=O)c2ccc3noc(-c4ccccc4)c3c2)CC1	inconclusive: 0.282 µM [inhibitor, full curve, poor fit]
COc1oc(C(=O)NC2CCCCC2)c(-c2ccc(Cl)cc2)c1S(=O)(=O)c1ccccc1	inactive
CCOc1ccc2nc(Cl)c(C3CC(c4ccccc4)=NN3C(=O)CCC(=O)O)cc2c1 (stereo not given)	inconclusive: 44.7 µM [inhibitor, partial curve, poor fit]
Cc1cccc(Oc2cc(NC(=O)Cn3cnc([N+](=O)[O-])n3)cc([N+](=O)[O-])c2)c1	inactive
COc1cccc(CNC(=O)C2=C(C)C(=O)OC23CCCCCC3)c1	inactive
COc1ccc2nc(NC(=O)c3nc(S(=O)(=O)Cc4ccc(C)cc4)ncc3Cl)sc2c1	inconclusive: 0.794 µM [inhibitor, full curve, poor fit]

SMILES	Potency
COc1ccc(Nc2cc(C)c3cc(NC(=O)COc4cccc(C)c4)ccc3n2)cc1	inconclusive: 1.78 µM [inhibitor, full curve]
COc1ccc(-c2c[n+](CC(=O)N3c4ccccc4Sc4ccccc43)c3n2CCC3)cc1	inactive
Cc1cc(C)c(S(=O)(=O)c2c(C)cccc2C)c(OCC(C)C)n1	inconclusive: 44.7 µM [inhibitor, partial curve]
Cc1ccc2nc(-c3ccccc3)cc(C(=O)N3CCc4ccccc4C3)c2c1	inconclusive: 35.5 µM [inhibitor, partial curve]
CC1CCN(S(=O)(=O)c2ccc3c(c2)N(CC(=O)NC(C)(C)C)C(=O)CS3)CC1	inconclusive: 10 µM [inhibitor, partial curve, poor fit]
COC(=O)c1cc2sc(Cl)cc2n1Cc1nc(-c2ccccc2C)oc1C	inactive
Cc1ccccc1OCC(=O)OCC(=O)c1c[nH]c2ccccc12	inconclusive: 100 µM [inhibitor, partial curve, poor fit]
CC(C)CC1NC(=O)N(CC(=O)NC2CCCc3ccccc32)C1=O (stereo not given)	inactive
COc1cccc(NC2=Nc3cccc4cccc2c34)c1	inconclusive: 39.8 µM [inhibitor, partial curve]
COc1ccc(Nc2nc3c(S(=O)(=O)c4ccc(C)cc4)nnn3c3ccsc23)cc1Cl	inconclusive: 50.1 µM [inhibitor, partial curve, poor fit]
COc1ccc(CC2(CO)CCN(Cc3cnn(C)c3)CC2)cc1	inconclusive: 7.08 µM [inhibitor, single point]
COc1cc2c(cc1OC)C(COc1ccccc1OC)N(C(=O)c1ccc(S(=O)(=O)N(C)C)cc1)CC2 (stereo not given)	inconclusive: 1120 µM [inhibitor, partial curve, poor fit]
O=C(O)c1ccc(Cl)c(S(=O)(=O)Nc2ccccc2Cc2ccccc2)c1	inconclusive: 0.251 µM [inhibitor, full curve, poor fit]
C=C1CC2(OC1=O)c1ccccc1CCc1ccccc12	inconclusive: 50.1 µM [inhibitor, partial curve, poor fit]
COc1ccccc1Oc1ccc(N/C=C/C(=O)c2ccco2)cc1	inconclusive: 39.8 µM [inhibitor, partial curve, poor fit]
O=[N+]([O-])c1c(Nc2cccc(O)c2)cc(Cl)c2nonc12	inconclusive: 44.7 µM [inhibitor, partial curve]
CN1CCc2c(n(CC(O)CNCc3ccccc3)c3ccccc23)C1=O (stereo not given)	inconclusive: 44.7 µM [inhibitor, partial curve]
COc1ccc(NC(=O)c2ccco2)cc1NC(=O)c1cc(Br)ccc1Cl	inactive
CCOC(=O)c1ccccc1NC(=O)CSc1cn(CC(=O)N2CCCCCC2)c2ccccc12	inconclusive: 1.26 µM [inhibitor, full curve, poor fit]

Two compounds picked at random from those above, as already listed:
SMILES	Potency
COc1ccc(CC2(CO)CCN(Cc3cnn(C)c3)CC2)cc1	inconclusive: 7.08 µM [inhibitor, single point]
CC(C)CC1NC(=O)N(CC(=O)NC2CCCc3ccccc32)C1=O (stereo not given)	inactive
